Measured values taken from US8183342B2, “Method of treating chemotherapy-induced thrombocytopenia” (Case Western Reserve University, priority 2007, dated 2012).
Entries after “also recorded” stand apart in the source; their conditions may differ. Part of at least one peptide drawing is inferred or uncertain, most often the ends. Some compounds share one wording; it may come from a single statement. Where no end group is shown, it is not given here.

Sequences of proteins named here, by UniProt entry; tags and fusion partners are left off.
UniProt Q07812, whole entry: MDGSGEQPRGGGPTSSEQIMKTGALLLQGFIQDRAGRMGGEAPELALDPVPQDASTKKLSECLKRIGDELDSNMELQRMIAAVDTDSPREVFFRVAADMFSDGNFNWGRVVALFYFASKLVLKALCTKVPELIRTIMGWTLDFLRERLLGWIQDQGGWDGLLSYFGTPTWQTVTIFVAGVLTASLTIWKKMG

Key:
[1] = test system: primary cultured mouse megakaryocytes; experiment: Platelet formation in vitro (Integrin αIIB positive platelet like particles, flow cytometry); assay type: cell-based; conditions: for platelet like particles formation: 48 h, VPTLK 200 μM, Z-VAD-fmk 200 and 400 μM, FIG. 5B
Protocol: After the pre-incubation with the peptides, 1 mM EDTA and 50 ng/ml prostaglandin E1 (Sigma) dissolved in ethanol were added to the cell culture before the centrifugation (700 g) at room temperature (RT) for 10 min. The platelets were washed with 300 μl of tyrodes buffer (pH 7.4) containing 2.5 mg/ml BSA and 1 mg/ml glucose. Then 2 μl of anti CD16/anti CD32 (BD Phaminogen™) was added to the platelets. The platelets were incubated at RT for 10 min. The platelets were divided into 3 sets, and 2 μl of rat IgG1 κ phycoerythrin (PE) labeled isotype control (Pharmingen) was added to one sample, and 2 μl of PE labeled antibody of intregin αIIB PE (Santa Cruz) was added to the other two samples. The platelets were incubated at RT for 30 min. Finally, 5 μl of Flow-Count™ Fluorospheres (Beackman-Coulter™) was added to the sample as platelet size marker. The platelets were detected with a FACScan flow cytometer system (Becton Dickinson; BD LSRII) using cellquest software. Each point in the figures showing percent apoptosis represents the mean±SEM of three experiments.

[2] = test system: platelet number in mouse peripheral blood; experiment: Platelet number in mouse peripheral blood after Etoposide; assay type: in vivo, C57BL/6J mice; conditions: for Etoposide-induced decrease of platelet count: BIP 166 mg/kg i.p. 30 min before Etoposide 150 mg/kg i.p., FIG. 6
Protocol: Percentage of platelets in C57BL/6J mice compared to before treatment (100%). […] The statistical significance was determine by an unpaired student t test, *P<0.05, **P<0.01, ***, P<0.001.
Mouse blood (50-100 micro 1) was collected by heparin-coated capillary tube from tail, and the samples were incubated at room temperature for 1 hr before blood cell analysis using HEMA VET blood cell counter (Drew Scientific Inc. Oxford, Conn.). Each blood sample was measured twice, and the mean value of two measurements was used as one sample data (n=1).

[3] = biological target: Bax (Homo sapiens, UniProt Q07812); experiment: Anti-Bax activity of peptides in cells (description); assay type: cell-based
[4] = test system: primary cultured mouse megakaryocytes; experiment: Etoposide-induced apoptosis in primary cultured mouse megakaryocytes; assay type: cell-based
[5] = general statement of the description

Substance: VPTLK [VPTLK]
- platelet like particles formation [1]: without interfering platelets formation activity
- platelet like particles formation ([1]; listed as BIP): did not inhibit platelet like particles formation activity of cultured megakaryocytes, and it actually slightly enhanced it
- ability of the megakaryocytes to produce and release platelets [1, 5]: without substantially affecting
- Etoposide-induced decrease of platelet count [2]: inhibited Etoposide induced platelets decreased
- Etoposide-induced decrease of platelet count ([2]; listed as BIP): significantly suppressed this effect of Etoposide
- platelet number compared with non-treated mice ([2]; for 3 days after Etoposide treatment, BIP 166 mg/kg i.p.): higher platelet number than non-treated mice
- biological (anti-Bax) activity in cells [3]: express anti-Bax activity in cells
- Etoposide-induced apoptosis in primary cultured mouse megakaryocytes ([4]; 200 μM VPTLK pre-incubated 48 h, 24 h Etoposide, FIG. 5A): inhibits Etoposide-induced apoptosis; also recorded: significantly blocked apoptosis
- cell death of megakaryocytes treated with Etoposide [4, 5]: suppressed cell death
